From patent US20240317840A1
These are yes or no findings as the source states them, for the method shown. Binding calls can cover weak binding; strength is not graded here.

Legend:
[1] = molecular target: HBsAg of HBV genotype B (AF 121245) (Hepatitis B virus); assay: sandwich ELISA
[2] = molecular target: HBsAg of HBV genotype C (DQ087960) (Hepatitis B virus); assay: sandwich ELISA
[3] = molecular target: HBsAg AD serotype (Hepatitis B virus); assay: SPR (Biacore), HBsAg particles immobilised on CM5 chip, antibody injected in 2-fold dilutions from 128 nM
[4] = molecular target: HBsAg AY serotype (Hepatitis B virus); assay: as above
[5] = molecular target: HBsAg of HBV genotype B (AF 121245) (Hepatitis B virus); assay: sandwich ELISA: HBsAg from culture supernatant captured on horse polyclonal anti-HBsAg, antibody titrated, HRP anti-human IgG Fab, A450
[6] = molecular target: HBsAg of HBV genotype C (DQ087960) (Hepatitis B virus); assay: as above

Measured: binding

B1: NOV3840 (antibody, human IgG1, lambda, V domains shown)
VH: EVQLLESGGGLVQPGGSRRLSCAASGFTFSYYGMNWVRQAPGKGLEWVSGITNSGSITYYADSVKGRFSISRDNSKNTLFLQMNSLRAEDTAVYYCAKVGVRSSSGMWDLDYWGQGTLVTVSS
VL: SYVLTQPPSVSVAPGQTARLSCGGNNIGSKSLQWYQQKPGQAPVLVVNDDSDRPSGIPERFSGSNSGNTATLTISRVEAGDEADYYCQVWDTSSDHVVFGGGTKLTVLG
binds: all assays above

B2: NOV3842 (antibody, human IgG1, lambda, V domains shown)
VH: EVQLLESGGGLVQPGGSRRLSCAASGFTFSYYGMNWVRQAPGKGLEWVSGITNVGSITYYADTVKGRFSISRDNSKNTLFLQMNSLRAEDTAVYYCAKVGVRSSSGMWDLDYWGQGTLVTVSS
VL: SYVLTQPPSVSVAPGQTARLSCGGNNIGSKSLQWYQQKPGQAPVLVVNDESDRPSGIPERFSGSNSGNTATLTISRVEAGDEADYYCQVWDTSSDHVVFGGGTKLTVLG
binds: all assays above

B3: NOV3841 (antibody, human IgG1, lambda, V domains shown)
VH: EVQLLESGGGLVQPGGSRRLSCAASGFTFSYYGMNWVRQAPGKGLEWVSGITQSGSITYYADTVKGRFSISRDNSKNTLFLQMNSLRAEDTAVYYCAKVGVRSSSGMWDLDYWGQGTLVTVSS
VL: SYVLTQPPSVSVAPGQTARLSCGGNNIGSKSLQWYQQKPGQAPVLVVNDESDRPSGIPERFSGSNSGNTATLTISRVEAGDEADYYCQVWDTSSDHVVFGGGTKLTVLG
binds: all assays above

B4: NOV3837 (antibody, human IgG1, kappa, V domains shown)
VH: QVQLQESGGRLVRPGGSLRLSCAASGFIFTDYYMTWIRQAPGKGPEWIAFITSGGETTYYADSVKGRFTISRDNAKKSLFLQMYSLRADDTAVYYCVRAHFDGYQYDTRGDFTYYFDNWGLGTLVSVSS
VL: EIVMTQSPATLSVSPGERVTLSCRASQSVSSSLAWYQQKPGRAPRLLIYGASTRATGVPARFSGGGSGTDFTLTISSLQSEDFAVYYCHQYINWPPGDTFGQGTRLDIKR
binds: all assays above

B5: NOV3838 (antibody, human IgG1, kappa, V domains shown)
VH: QVQLQESGGRLVRPGGSLRLSCAASGFIFTDYYMTWIRQAPGKGPEWIAFITSGGETTYYADSVKGRFTISRDNAKKSLFLQMYSLRADDTAVYYCVRAHFDLYQYDTRGDFTYYFDNWGLGTLVSVSS
VL: EIVMTQSPATLSVSPGERVTLSCRASQSVSSSLAWYQQKPGRAPRLLIYGASTRATGVPARFSGGGSGTDFTLTISSLQSEDFAVYYCHQYINWPPGDTFGQGTRLDIKR
binds: all assays above

B6: NOV3839 (antibody, human IgG1, kappa, V domains shown)
VH: QVQLQESGGRLVRPGGSLRLSCAASGFIFTDYYMTWIRQAPGKGPEWIAFITSGGETTYYADSVKGRFTISRDNAKKSLFLQMYSLRADDTAVYYCVRAHFDIYQYDTRGDFTYYFDNWGLGTLVSVSS
VL: EIVMTQSPATLSVSPGERVTLSCRASQSVSSSLAWYQQKPGRAPRLLIYGASTRATGVPARFSGGGSGTDFTLTISSLQSEDFAVYYCHQYINWPPGDTFGQGTRLDIKR
binds: all assays above

B7: NOV3831 (antibody, human IgG1, lambda, V domains shown)
VH: EMQVLESGGGLVQPGGSLRLSCAASGFTFNNYAMSWVRQVPGKGLEWVSSISGSGGSTYYADSVKGQFTISRDNSKNTLYLQMNSLRAEDTAVYYCAKSSILSGGHARVYGIDVWGQGTTVTVSS
VL: QSALTQPPSVSVAPGQTARITCGGNNIGSQSVHWYQQKPGQAPILVVYDDTDRPSGIPARFSGSSSGSTATLTIGRVEAGDEADYYCQVWDSSSDHVVFGGGTKLTVLS
binds: all assays above

B8: NOV3832 (antibody, human IgG1, lambda, V domains shown)
VH: EMQVLESGGGLVQPGGSLRLSCAASGFTFDNYAMSWVRQVPGKGLEWVSSISGSGGSTYYADSVKGQFTISRDNSKNTLYLQMNSLRAEDTAVYYCAKSSILSGGHARVYGIDVWGQGTTVTVSS
VL: QSALTQPPSVSVAPGQTARITCGGNNIGSQSVHWYQQKPGQAPILVVYDDTDRPSGIPARFSGSSSGSTATLTIGRVEAGDEADYYCQVWDSSSDHVVFGGGTKLTVLS
binds: all assays above

B9: NOV3833 (antibody, human IgG1, lambda, V domains shown)
VH: EMQVLESGGGLVQPGGSLRLSCAASGFTFHNYAMSWVRQVPGKGLEWVSSISGSGGSTYYADSVKGQFTISRDNSKNTLYLQMNSLRAEDTAVYYCAKSSILSGGHARVYGIDVWGQGTTVTVSS
VL: QSALTQPPSVSVAPGQTARITCGGNNIGSQSVHWYQQKPGQAPILVVYDDTDRPSGIPARFSGSSSGSTATLTIGRVEAGDEADYYCQVWDSSSDHVVFGGGTKLTVLS
binds: all assays above

B10: NOV3834 (antibody, human IgG1, kappa, V domains shown)
VH: QVQLVESGGGVVQPGRSLRLSCAASGFTFNRYGMHWVRQAPGKGLEWVAGIWHDGSHKYYADSLRGRFTISRDNAKNTLDLQLNRLRAEDTSVYYCVRQTNRGRLDDAFDIWGQGTMVTVSS
VL: DIQMTQSPSSLSAAVGDRVTISCRASQTISSYLNWYQQKPGEAPKLLIYAASTLQSGVPSRFGGSGSGTDFTLTISSLQPEDSATYYCQQNYDTLWTFGQGTKVEIKR
binds: all assays above

B11: NOV3357 (antibody, human IgG1, kappa, V domains shown)
VH: EVQLLESGGGLVQPGGSLRLSCAASGFTFSPHAMSWVRQAPGKGLEWVSAISDSGGSTHYADSVKGRFTISRDNSKNTLYLQMNSLRAEDTAVYYCARDDDGWSGYDYWFDYWGQGTLVTVSS
VL: DIQMTQSPSSLSASVGDRVTITCRASQSISPYLNWYQQKPGKAPKLLIYAADSLQSGVPSRFSGSGSGTDFTLTISSLQPEDFATYYCQQSYKIPLTFGQGTKVEIKR
binds: all assays above

B12: NOV3540 (antibody, human IgG1, kappa, V domains shown)
VH: EVQLLESGGGLVQPGGSLRLSCAASGFTFSPHAMSWVRQAPGKGLEWVSAISDSGGSTHYADSVKGRFTISRDNSKNTLYLQMNSLRAEDTAVYYCARDDDAWSGYDYWFDYWGQGTLVTVSS
VL: DIQMTQSPSSLSASVGDRVTITCRASQSISPYLNWYQQKPGKAPKLLIYAADSLQSGVPSRFSGSGSGTDFTLTISSLQPEDFATYYCQQSYKIPLTFGQGTKVEIKR
binds: all assays above
